Where “and” joins values, the source holds several entries; their conditions need not be identical. Identical values can stand only once. Some of the results follow. Repeats in this data set agree poorly, so a single value says little.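 HEK293T cells were given each compound shortly before transfection with a reporter in which red mCherry is followed by the SARS-CoV-2 frameshift element and then GFP in the −1 frame, so GFP appears only after frameshifting.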

This note sets out measurements from the supplement of paper PMC8256030.

One assay deals with HEK293T. As to the kind of experiment: percent viability (nuclei count) relative to control; higher = more viable cells. The note with it: 10 µM; 24 h.
Assay [1] relates to SARS-CoV-2 -1 PRF reporter mCherry-FSE-GFP(-1). As to the kind of experiment: mCherry (red) intensity as percent of control; higher = higher upstream reporter expression. The following applies: 10 µM; 24 h; HEK293T.
Assay [2] has the same test system. As to the kind of experiment: percent effect, decrease of GFP/mCherry ratio (-1 PRF reporter) relative to controls; higher = stronger frameshift inhibition. The note with it: 10 µM; 24 h; HEK293T.

On to `CCNC1(c2cccs2)CCCCC1=O` (stereo not drawn) [tiletamine], for which, in the assay on HEK293T, the percent viability was found to be 42.1%. In addition, the mCherry in assay [1] was determined as 74.9%. For the same compound, the percent effect in assay [2] is -0.575%.
In the case of `O=C(O)C1N=C(c2ccccc2)c2cc(Cl)ccc2NC1=O` (stereo not drawn), the percent viability with HEK293T is 259%. The mCherry in assay [1] was 81.7%. The percent effect in assay [2] is -5.11%.
With `Cc1ccc(/C(=C\CN2CCCC2)c2ccccn2)cc1` [triprolidine], in assay [1], the mCherry is 101% and 89.7%.
Regarding `COc1ccc(C(CN(C)C)C2(O)CCCCC2)cc1` (stereo not drawn) [venlafaxine], the percent viability in the assay on HEK293T is 274% and 194%. The percent effect in assay [2] was 0.0345% and -1.82%.
As to `C[n+]1c2cc(N)ccc2cc2ccc(N)cc21`, in assay [1], the mCherry is 40.2%.
For the compound `O=C(CCCN1CCC2(CC1)C(=O)NCN2c1ccccc1)c1ccc(F)cc1` [spiperone], the percent viability with HEK293T was 392% and 257%. The percent effect in assay [2] was 11.3% and -2.59%.
Consider `Cn1c(=O)c2c(ncn2C)n(C)c1=O` [Caffeine], for which, in assay [1], the mCherry is 76.6%.
The same measure, in the same setting: the result for `O.O.O.O.O=C([O-])CC(O)(CC(=O)[O-])C(=O)[O-].[Li+].[Li+].[Li+]` reads 100%; that for `CC1(C)[C@H](C(=O)O)N2C(=O)C[C@H]2S1(=O)=O` [Sulbactam], 66.2%; that for `CCCC(=O)Nc1ncnc2c1ncn2[C@@H]1O[C@@H]2COP(=O)(O)O[C@H]2[C@H]1OC(=O)CCC`, 112%.
As to `C[C@@H](Cc1ccccc1)N(C)Cc1ccccc1` [Didrex], in the assay with HEK293T, the percent viability was found to be 231%. Moreover, the mCherry in assay [1] amounted to 91%. In addition, the percent effect in assay [2] was -2.67%.
As for `COC1=CC(=O)C[C@@H](C)[C@]12Oc1c(Cl)c(OC)cc(OC)c1C2=O`, the mCherry in assay [1] was 105%.
As to `COc1ccc2c(c1)[C@]13CCCC[C@@H]1[C@H](C2)N(C)CC3` [dextromethorphan], the percent viability with HEK293T is 242% and 159% and 208%. In addition, the percent effect in assay [2] was -4.46% and -1.01% and -1.27%.
Regarding `C(=N\NC1=NCCN1)/c1c2ccccc2c(/C=N/NC2=NCCN2)c2ccccc12` [bisantrene], the mCherry in assay [1] was 273%.
For the compound `COc1cccc(C2(O)CCCCC2CN(C)C)c1` (stereo not drawn) [Tramadol], in the assay with HEK293T, the percent viability stood at 220%. The compound also showed a mCherry in assay [1] of 50.5%. Also, the percent effect in assay [2] was -4.83%.
Consider `C=CCN1CC[C@]23c4c5ccc(O)c4O[C@H]2C(=O)CC[C@@]3(O)[C@H]1C5` [naloxone], for which, in the assay on HEK293T, the percent viability was 328% and 251%. For the same compound, in assay [2], the percent effect was -2.88% and -6.7%.
For `COc1ccc(CCN2CCC(Nc3nc4ccccc4n3Cc3ccc(F)cc3)CC2)cc1` [astemizole], the percent viability in the assay on HEK293T is 548% and 344%. Moreover, the percent effect in assay [2] is -2.92% and -7.14%.
With `O=c1[nH]oc2c1CCNC2`, the percent viability in the assay with HEK293T was determined as 312%. Besides, in assay [1], the mCherry was determined as 95.4%. Besides, the percent effect in assay [2] came out at 2.71%.
As to `CC(=O)O[C@H]1C[C@@H]2CC[C@@H]3[C@H](CC[C@@]4(C)[C@H]3C[C@H]([N+]3(C)CCCCC3)[C@@H]4OC(C)=O)[C@@]2(C)C[C@@H]1[N+]1(C)CCCCC1` [pancuronium bromide], in the assay on HEK293T, the percent viability is 261% and 205%. The percent effect in assay [2] was 0.613% and 2.28%.
The compound `CC(C)NCC(O)COc1cccc2ccccc12` (stereo not drawn) registered a mCherry in assay [1] of 125%.
Turning to `CC(C)CC(N(C)C)C1(c2ccc(Cl)cc2)CCC1` (stereo not drawn) [sibutramine], the percent viability in the assay with HEK293T was 307% and 164%. Moreover, the percent effect in assay [2] was -3.47% and -1.36%.
Consider `NCCCNCCSP(=O)(O)O` [amifostine], for which the percent viability in the assay with HEK293T was 214% and 304%. Moreover, the percent effect in assay [2] is -1.06% and -6.5%.
As for `NC(=O)C(c1ccccc1)(c1ccccc1)[C@@H]1CCN(CCc2ccc3c(c2)CCO3)C1` [Enablex], in assay [1], the mCherry turned out to be 148%.
`COC1=CC(=O)C[C@@H](C)[C@]12Oc1c(Cl)c(OC)cc(OC)c1C2=O` [griseofulvin] showed a mCherry in assay [1] of 107%.
With `CCC(=O)C(CC(C)N(C)C)(c1ccccc1)c1ccccc1` (stereo not drawn) [Amidone], the percent viability in the assay with HEK293T is 336%. The mCherry in assay [1] worked out at 100%. The percent effect in assay [2] is -5.52%.
In the case of `NC(=O)C(c1ccccc1)(c1ccccc1)[C@@H]1CCN(CCc2ccc3c(c2)CCO3)C1`, in assay [1], the mCherry worked out at 113%.
Same read-out and setting: the result for `Cn1c2ncnc-2c(O)n(C)c1=O` [choline theophyllinate] reads 107%; that for `NNc1nncc2ccccc12` [hydralazine], 104%; that for `Oc1c(Cl)cc(Cl)cc1Sc1cc(Cl)cc(Cl)c1O`, 85.1%.
On the same count and under the same terms, the result for `CCN(CC)C(=S)SSC(=S)N(CC)CC` [disulfiram] reads 42.4% and 57.7%.
For the compound `CCC1(c2ccc(N)cc2)CCC(=O)NC1=O` (stereo not drawn) [aminoglutethimide], the percent viability with HEK293T is 182% and 317%. The percent effect in assay [2] was -1.51% and -5.85%.
In the case of `CC(C)NCC(O)COc1cccc2ccccc12` (stereo not drawn) [dibudinate], the mCherry in assay [1] was 92%.
Take `CC(C)c1cccc(C(C)C)c1O` [propofol]: the percent viability in the assay on HEK293T is 216% and 214%. In addition, in assay [2], the percent effect was -3.79% and 0.00445%.
Regarding `CC(O)(CS(=O)(=O)c1ccc(F)cc1)C(=O)Nc1ccc(C#N)c(C(F)(F)F)c1` (stereo not drawn) [bicalutamide], the percent viability in the assay on HEK293T was 226% and 146%. Also, in assay [2], the percent effect was 0.671% and -15.3%.
In assay [1], `COc1cc([C@@H]2c3cc4c(cc3[C@@H](O[C@@H]3O[C@@H]5CO[C@@H](C)O[C@H]5[C@H](O)[C@H]3O)[C@H]3COC(=O)[C@H]23)OCO4)cc(OC)c1O` [etoposide] returned a mCherry of 22.1%.
